Results from the supplement of paper PMC7666118.
The list shows a part of the results.

Chains of the proteins cited; added tags and fusions are not shown. Lines headed by an entry give the natural chain unless they say otherwise; changes in a name come on top.
UniProt O15269: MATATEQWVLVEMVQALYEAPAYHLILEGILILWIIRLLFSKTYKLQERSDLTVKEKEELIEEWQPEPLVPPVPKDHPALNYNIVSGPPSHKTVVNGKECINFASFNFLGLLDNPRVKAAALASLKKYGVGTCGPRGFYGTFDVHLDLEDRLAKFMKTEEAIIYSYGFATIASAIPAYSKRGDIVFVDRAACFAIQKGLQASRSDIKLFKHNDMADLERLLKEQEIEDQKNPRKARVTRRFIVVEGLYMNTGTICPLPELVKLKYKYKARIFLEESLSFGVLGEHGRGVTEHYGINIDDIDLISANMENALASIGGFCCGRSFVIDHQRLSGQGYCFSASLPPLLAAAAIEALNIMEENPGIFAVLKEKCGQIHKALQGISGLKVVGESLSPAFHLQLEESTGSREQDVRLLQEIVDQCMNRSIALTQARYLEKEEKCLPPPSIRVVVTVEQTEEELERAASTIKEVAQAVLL
UniProt P23497: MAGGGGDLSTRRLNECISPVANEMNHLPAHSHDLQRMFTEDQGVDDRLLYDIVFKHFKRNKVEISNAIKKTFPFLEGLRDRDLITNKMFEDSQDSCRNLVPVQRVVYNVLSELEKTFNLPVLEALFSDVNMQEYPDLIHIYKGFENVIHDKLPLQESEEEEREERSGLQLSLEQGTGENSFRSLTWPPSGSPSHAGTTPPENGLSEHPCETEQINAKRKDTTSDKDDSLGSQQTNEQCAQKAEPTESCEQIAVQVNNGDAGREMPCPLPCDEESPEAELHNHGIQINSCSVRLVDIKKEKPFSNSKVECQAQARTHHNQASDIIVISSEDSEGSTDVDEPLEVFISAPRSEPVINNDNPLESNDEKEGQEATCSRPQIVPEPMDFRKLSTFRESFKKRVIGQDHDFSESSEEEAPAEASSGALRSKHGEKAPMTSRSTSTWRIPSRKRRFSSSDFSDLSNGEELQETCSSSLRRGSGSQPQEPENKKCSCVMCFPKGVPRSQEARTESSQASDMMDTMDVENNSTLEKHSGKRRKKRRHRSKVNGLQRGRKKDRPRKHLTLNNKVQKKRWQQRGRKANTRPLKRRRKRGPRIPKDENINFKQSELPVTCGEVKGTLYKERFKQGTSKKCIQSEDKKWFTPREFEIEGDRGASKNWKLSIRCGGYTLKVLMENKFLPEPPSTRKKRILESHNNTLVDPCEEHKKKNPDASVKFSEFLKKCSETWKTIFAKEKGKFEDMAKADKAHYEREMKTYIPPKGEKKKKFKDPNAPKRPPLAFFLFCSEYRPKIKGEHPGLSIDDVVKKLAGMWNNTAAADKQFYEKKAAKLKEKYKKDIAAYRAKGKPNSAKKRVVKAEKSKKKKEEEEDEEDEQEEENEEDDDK
UniProt O43609: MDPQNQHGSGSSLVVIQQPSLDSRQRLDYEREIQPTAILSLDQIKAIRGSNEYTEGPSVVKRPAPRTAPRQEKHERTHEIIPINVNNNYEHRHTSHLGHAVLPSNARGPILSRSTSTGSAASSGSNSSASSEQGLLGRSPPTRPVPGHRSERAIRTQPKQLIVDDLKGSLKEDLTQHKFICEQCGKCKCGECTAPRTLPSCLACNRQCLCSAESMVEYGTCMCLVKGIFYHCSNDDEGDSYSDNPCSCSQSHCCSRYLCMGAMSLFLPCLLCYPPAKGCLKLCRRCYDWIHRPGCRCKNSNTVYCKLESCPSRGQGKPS
UniProt P26639: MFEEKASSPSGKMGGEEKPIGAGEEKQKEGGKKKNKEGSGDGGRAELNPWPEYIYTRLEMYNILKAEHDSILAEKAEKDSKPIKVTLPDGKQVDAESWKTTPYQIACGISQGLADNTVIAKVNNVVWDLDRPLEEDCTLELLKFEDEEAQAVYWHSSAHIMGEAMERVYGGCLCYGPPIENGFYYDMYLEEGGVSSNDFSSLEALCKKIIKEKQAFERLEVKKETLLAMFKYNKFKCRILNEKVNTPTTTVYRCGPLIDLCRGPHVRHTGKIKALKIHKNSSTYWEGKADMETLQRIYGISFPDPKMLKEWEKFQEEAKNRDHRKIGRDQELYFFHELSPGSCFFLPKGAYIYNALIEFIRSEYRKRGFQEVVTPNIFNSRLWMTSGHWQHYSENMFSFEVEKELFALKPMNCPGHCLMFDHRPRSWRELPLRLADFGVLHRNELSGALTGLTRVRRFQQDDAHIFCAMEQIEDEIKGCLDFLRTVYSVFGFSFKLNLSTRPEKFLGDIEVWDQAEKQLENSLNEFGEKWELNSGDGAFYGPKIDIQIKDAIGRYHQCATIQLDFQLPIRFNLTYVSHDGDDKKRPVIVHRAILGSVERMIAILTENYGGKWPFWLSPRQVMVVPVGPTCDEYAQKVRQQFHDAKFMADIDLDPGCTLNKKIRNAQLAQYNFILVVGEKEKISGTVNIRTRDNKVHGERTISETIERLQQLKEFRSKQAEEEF
UniProt Q86TM6, whole entry: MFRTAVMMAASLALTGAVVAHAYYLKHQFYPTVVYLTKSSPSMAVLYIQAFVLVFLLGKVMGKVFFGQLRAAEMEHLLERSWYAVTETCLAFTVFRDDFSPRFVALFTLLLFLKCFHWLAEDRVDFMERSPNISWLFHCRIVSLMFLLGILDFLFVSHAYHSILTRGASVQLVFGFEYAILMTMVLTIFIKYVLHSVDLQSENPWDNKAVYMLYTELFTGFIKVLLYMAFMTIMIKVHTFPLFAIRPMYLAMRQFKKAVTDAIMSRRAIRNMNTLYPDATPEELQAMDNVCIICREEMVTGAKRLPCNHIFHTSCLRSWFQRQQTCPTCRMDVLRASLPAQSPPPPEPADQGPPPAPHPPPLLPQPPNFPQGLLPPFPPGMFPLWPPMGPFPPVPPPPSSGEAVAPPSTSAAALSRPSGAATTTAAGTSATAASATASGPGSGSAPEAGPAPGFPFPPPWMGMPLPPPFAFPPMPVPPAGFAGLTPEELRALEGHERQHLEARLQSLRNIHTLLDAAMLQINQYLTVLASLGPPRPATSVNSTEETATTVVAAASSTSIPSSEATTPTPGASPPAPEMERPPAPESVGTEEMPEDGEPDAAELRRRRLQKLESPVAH
UniProt P27105: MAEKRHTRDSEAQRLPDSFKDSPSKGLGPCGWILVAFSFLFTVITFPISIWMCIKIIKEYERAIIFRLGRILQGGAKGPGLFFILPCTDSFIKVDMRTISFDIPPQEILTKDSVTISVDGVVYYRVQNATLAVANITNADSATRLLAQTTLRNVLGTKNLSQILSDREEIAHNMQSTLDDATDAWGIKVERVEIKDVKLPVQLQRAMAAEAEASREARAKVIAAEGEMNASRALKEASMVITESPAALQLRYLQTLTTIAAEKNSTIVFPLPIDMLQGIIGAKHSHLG
UniProt P78362, whole entry, looked up: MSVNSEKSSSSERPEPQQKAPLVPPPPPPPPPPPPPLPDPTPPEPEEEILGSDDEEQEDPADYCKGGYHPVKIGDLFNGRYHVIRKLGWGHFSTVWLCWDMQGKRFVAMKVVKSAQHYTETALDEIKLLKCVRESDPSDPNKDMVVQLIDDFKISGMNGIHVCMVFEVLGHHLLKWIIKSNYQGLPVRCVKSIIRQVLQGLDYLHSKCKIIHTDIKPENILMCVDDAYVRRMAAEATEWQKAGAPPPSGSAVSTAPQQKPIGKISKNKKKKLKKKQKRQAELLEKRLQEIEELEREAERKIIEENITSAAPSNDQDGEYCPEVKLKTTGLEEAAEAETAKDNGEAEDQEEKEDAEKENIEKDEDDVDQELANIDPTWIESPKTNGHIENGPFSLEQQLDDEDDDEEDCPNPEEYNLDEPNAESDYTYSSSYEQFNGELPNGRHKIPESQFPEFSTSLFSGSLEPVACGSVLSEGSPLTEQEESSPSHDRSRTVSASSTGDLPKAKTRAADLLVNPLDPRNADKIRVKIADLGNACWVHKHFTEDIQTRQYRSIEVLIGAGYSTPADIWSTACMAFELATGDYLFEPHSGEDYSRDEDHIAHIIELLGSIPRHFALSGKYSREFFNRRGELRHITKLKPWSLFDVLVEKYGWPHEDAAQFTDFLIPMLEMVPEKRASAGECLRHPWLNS
UniProt Q8WUH2: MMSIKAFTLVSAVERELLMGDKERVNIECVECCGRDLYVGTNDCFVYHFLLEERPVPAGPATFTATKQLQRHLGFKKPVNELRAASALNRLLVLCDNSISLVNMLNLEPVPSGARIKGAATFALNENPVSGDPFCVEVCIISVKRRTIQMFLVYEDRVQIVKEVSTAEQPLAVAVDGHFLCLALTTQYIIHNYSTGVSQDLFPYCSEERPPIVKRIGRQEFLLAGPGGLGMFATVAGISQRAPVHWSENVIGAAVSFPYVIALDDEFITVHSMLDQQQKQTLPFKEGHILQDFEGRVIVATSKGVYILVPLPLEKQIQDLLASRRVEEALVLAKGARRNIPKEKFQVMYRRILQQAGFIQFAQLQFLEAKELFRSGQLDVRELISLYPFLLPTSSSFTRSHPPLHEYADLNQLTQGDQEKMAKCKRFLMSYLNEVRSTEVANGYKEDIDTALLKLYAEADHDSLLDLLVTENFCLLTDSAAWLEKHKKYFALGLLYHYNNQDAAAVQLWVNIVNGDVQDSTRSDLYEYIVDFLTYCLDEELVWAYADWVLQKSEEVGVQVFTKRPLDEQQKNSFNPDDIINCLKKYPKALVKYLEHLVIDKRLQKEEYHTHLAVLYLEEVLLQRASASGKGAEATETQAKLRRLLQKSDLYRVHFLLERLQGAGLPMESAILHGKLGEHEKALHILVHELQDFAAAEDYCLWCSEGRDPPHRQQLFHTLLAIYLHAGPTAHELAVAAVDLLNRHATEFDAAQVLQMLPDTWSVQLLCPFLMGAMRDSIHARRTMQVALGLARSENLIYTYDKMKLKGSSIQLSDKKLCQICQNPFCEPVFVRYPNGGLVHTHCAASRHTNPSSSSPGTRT
UniProt Q08945, whole entry: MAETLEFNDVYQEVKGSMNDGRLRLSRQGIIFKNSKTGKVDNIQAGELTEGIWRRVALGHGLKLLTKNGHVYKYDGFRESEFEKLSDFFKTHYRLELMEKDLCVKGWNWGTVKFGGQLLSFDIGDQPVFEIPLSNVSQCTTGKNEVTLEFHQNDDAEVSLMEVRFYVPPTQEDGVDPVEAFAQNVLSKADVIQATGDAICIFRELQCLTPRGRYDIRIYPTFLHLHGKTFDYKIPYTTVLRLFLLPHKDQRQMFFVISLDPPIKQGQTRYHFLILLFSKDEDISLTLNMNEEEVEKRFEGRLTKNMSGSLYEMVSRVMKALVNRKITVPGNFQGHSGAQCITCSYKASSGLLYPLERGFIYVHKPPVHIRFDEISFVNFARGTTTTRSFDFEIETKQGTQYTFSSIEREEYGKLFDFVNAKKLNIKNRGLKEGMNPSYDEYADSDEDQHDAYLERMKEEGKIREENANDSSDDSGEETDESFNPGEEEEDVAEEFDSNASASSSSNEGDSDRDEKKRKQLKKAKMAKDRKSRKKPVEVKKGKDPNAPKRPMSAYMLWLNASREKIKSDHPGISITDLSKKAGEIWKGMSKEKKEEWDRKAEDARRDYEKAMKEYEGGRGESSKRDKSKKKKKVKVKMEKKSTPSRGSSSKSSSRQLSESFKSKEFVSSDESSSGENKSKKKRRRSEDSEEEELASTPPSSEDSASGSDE

Compound: COc1ccc(Cn2ccc3cc(C)c(C(=O)NO)cc32)cc1
Assay: dose-dependent thermal stabilisation call (2D-TPP, DLPTP, 10% FDR) (binary (1 = stabilised)); higher = stabilised by the compound
Details: system: HL-60 intact cells; concentration range 0.04-10 µM
Protocol: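 2D thermal proteome profiling in intact HL-60 cells treated with BRD-3811 (0, 0.04, 0.29, 2, 10 uM) for 90 min at 37 C, then heated 3 min at one of 12 temperatures (42-63.9 C). Soluble protein was quantified by TMT10 MS. The value is the DLPTP call of the paper: dose-dependent thermal stabilisation over all temperatures at 10% FDR (F-test of a dose-response against a flat model); one experiment, one call per tested protein.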

| Target | dose-dependent thermal stabilisation call |
| --- | --- |
| SPTLC1 (UniProt O15269) | inactive: 0 |
| SP100 (UniProt P23497) | inactive: 0 |
| SPRY1 (UniProt O43609) | inactive: 0 |
| TARS (UniProt P26639) | inactive: 0 |
| SYVN1 (UniProt Q86TM6) | inactive: 0 |
| STOM (UniProt P27105) | inactive: 0 |
| SRPK2 (UniProt P78362) | inactive: 0 |
| TGFBRAP1 (UniProt Q8WUH2) | inactive: 0 |
| SSRP1 (UniProt Q08945) | inactive: 0 |

2 successive entries already listed:

| Target | dose-dependent thermal stabilisation call |
| --- | --- |
| SYVN1 (UniProt Q86TM6) | inactive: 0 |
| STOM (UniProt P27105) | inactive: 0 |
